Laboratory results reported in PMC10851022.
These are yes or no findings as the source states them, for the method shown. In cells and extracts the contact can be indirect. Some results given as binding are weak or reduced against the parent protein; the word gives no strength.

Amino acid sequences for entries named in this document (tags omitted).
UniProt Q07157: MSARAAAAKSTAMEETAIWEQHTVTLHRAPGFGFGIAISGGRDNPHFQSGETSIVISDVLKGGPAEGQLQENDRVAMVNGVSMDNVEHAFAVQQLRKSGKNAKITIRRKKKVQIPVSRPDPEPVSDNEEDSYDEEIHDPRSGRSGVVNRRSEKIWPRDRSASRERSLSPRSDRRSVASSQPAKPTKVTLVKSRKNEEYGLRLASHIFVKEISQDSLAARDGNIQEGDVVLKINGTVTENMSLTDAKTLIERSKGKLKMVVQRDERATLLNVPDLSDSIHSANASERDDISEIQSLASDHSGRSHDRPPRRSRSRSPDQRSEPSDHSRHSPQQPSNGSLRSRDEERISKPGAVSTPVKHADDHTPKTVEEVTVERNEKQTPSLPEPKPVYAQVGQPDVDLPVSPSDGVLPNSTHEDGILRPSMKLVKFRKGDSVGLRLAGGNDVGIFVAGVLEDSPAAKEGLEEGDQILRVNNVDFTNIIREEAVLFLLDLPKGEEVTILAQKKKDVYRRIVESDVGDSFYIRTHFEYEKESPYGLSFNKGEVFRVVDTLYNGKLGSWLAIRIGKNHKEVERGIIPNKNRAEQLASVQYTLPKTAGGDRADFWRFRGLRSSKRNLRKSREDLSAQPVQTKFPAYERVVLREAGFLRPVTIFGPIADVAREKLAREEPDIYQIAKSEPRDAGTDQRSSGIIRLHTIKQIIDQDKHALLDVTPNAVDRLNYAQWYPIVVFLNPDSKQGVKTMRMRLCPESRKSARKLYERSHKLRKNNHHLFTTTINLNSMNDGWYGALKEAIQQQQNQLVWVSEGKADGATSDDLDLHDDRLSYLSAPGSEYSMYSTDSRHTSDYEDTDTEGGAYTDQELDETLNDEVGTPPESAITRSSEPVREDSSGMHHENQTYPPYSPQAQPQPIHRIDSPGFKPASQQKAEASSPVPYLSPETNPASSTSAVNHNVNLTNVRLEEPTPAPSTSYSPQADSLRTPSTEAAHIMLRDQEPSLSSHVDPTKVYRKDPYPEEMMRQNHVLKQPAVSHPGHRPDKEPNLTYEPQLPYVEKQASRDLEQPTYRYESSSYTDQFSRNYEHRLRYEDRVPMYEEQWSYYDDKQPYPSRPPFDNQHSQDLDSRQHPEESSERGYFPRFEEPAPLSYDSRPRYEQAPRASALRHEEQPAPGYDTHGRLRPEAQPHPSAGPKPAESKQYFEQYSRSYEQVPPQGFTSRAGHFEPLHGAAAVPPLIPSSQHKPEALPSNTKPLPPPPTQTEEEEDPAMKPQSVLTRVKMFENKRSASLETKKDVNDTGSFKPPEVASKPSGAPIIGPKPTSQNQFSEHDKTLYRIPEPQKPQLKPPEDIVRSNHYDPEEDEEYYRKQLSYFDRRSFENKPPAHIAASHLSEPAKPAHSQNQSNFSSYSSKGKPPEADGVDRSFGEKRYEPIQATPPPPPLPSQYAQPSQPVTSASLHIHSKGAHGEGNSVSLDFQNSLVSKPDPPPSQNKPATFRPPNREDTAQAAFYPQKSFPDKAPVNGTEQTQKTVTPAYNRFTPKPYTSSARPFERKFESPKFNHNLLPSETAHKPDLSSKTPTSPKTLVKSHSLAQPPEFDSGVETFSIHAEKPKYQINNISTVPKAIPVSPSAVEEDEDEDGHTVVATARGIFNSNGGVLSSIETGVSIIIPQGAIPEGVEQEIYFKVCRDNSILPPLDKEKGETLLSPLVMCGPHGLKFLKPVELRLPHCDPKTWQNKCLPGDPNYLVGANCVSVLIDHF

Biological target: T1, nephrin (human (endogenous in conditionally immortalized human podocytes)) (UniProt O60500)
T1 sequence: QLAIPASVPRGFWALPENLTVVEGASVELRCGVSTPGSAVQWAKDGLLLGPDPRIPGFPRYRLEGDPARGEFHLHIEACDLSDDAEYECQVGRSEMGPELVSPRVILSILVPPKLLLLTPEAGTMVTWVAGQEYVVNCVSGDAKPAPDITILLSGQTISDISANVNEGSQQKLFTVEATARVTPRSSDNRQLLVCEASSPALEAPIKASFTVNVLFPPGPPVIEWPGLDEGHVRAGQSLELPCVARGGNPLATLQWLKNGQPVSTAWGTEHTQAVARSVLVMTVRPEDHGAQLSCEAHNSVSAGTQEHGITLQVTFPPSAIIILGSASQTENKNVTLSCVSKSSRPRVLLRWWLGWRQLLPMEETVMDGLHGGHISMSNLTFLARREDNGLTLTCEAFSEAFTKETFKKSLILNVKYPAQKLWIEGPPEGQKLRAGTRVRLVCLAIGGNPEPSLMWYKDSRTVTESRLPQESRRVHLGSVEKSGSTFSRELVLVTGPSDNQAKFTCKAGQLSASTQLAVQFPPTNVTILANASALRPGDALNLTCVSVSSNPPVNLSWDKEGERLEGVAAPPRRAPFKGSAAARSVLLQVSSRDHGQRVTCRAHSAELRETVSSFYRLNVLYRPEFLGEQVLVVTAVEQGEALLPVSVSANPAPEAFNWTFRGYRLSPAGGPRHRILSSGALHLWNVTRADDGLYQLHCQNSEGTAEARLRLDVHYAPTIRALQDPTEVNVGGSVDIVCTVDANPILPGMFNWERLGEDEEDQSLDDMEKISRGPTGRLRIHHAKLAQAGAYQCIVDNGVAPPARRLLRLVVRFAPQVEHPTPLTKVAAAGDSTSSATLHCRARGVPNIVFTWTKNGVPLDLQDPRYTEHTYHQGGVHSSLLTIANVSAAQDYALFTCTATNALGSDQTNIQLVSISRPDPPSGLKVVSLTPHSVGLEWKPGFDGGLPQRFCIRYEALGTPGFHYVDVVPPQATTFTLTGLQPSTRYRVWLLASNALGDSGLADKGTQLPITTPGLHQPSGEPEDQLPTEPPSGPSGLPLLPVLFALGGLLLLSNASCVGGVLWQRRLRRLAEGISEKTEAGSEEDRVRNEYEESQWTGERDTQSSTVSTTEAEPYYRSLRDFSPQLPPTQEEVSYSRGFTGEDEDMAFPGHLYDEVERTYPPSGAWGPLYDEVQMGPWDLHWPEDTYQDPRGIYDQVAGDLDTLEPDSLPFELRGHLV
Experiment: co-IP; 0.5 mg podocyte lysate protein (modified radioimmunoprecipitation assay buffer) incubated with 1 ug anti-nephrin antibody at 4 °C overnight, immunoblot for ZO-1 or podocin; cells untreated or treated 48 hours with H2O2 (200 uM) or dynasore (150 uM), with or without catalase (0.5 uM): association reduced by H2O2 or dynasore, restored by catalase

In the case of ZO-1 (from UniProt Q07157 1-1748), the binding is reported as “binds”.
